The other results are listed elsewhere or left out.
What was measured:
Assay in all cases: log2 fold change, soluble protein after heating vs DMSO (PISA); higher = thermal stabilisation; K562 cells, 10 uM, 30 min; active = over 0.2 and 3.5 SD of the protein, either way, in both replicates (recomputed)
erlotinib = compound: C#Cc1cccc(Nc2ncnc3cc(OCCOC)c(OCCOC)cc23)c1 [erlotinib]
How it was run: (§1)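 Soluble protein was defined as the supernatant after 21,000xg for 90 min. It came from K562 cells at 2×10^6 cells/mL given 10 μM compound for 30 min, heated in aliquots for 3 min across 48°C-58°C, pooled, and extracted in PBS with 0.5% NP-40 at 4°C, and was quantified by TMTpro 16plex LC-MS/MS with equalised channel sums. Thermal stability against control samples, from duplicates, is reported as log2 fold change.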

Amino acid sequences for entries named in this document (tags omitted). A change or cut given only in a name is not applied to a line headed by its entry.
UniProt Q9BW91: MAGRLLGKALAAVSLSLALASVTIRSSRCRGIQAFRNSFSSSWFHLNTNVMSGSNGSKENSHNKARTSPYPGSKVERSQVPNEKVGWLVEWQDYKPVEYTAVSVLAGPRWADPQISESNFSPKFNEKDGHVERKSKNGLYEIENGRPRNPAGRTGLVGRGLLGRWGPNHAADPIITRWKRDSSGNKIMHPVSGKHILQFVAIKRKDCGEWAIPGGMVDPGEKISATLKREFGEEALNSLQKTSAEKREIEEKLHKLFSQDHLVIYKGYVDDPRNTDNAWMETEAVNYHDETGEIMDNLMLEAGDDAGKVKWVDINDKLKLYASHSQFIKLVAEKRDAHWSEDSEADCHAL
UniProt Q8NFH4: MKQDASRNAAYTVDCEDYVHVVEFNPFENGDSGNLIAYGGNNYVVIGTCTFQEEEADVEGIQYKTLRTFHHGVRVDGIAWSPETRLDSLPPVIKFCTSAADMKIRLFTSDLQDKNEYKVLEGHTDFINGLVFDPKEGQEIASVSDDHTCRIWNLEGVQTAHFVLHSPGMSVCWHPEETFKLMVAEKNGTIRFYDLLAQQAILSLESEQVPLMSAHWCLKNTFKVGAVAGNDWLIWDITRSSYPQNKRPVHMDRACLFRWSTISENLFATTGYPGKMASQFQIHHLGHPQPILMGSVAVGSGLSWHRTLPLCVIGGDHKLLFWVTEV
UniProt Q8NE18: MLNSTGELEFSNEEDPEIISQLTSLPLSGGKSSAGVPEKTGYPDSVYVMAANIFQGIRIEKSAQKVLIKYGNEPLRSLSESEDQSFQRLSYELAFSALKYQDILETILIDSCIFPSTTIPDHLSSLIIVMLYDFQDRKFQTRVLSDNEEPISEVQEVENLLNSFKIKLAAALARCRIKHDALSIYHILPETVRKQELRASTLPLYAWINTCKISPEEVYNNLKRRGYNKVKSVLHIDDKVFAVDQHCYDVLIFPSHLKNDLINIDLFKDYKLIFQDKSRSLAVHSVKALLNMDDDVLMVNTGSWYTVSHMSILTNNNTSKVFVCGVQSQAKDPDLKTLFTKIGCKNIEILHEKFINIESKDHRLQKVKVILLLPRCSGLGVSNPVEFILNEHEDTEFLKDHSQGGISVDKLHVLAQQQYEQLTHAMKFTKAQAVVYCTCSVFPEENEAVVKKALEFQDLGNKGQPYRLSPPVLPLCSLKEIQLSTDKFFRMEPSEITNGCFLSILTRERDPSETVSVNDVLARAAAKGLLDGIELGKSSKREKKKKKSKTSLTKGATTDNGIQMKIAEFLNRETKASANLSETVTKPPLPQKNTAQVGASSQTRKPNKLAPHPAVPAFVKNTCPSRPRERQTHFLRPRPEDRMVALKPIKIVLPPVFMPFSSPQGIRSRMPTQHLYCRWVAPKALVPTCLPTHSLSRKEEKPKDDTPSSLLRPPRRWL
UniProt Q9NX40: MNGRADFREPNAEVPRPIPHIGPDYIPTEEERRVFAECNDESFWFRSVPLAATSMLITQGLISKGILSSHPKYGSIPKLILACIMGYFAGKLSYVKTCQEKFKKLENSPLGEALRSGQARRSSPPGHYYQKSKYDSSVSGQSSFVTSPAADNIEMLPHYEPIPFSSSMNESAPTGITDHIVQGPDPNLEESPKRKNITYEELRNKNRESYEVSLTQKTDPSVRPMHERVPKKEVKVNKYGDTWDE
UniProt Q9UQ80: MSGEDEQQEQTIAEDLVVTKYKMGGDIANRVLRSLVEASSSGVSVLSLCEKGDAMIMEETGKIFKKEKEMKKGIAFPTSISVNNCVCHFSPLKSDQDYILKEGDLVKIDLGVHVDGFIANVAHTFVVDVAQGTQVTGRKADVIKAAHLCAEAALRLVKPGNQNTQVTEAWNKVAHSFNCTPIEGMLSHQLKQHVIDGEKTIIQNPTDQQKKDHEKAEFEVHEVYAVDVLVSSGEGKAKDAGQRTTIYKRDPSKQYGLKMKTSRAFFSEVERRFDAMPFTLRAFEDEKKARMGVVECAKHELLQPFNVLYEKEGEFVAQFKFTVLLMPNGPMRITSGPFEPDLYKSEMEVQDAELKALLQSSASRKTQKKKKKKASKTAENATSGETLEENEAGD
UniProt P80303: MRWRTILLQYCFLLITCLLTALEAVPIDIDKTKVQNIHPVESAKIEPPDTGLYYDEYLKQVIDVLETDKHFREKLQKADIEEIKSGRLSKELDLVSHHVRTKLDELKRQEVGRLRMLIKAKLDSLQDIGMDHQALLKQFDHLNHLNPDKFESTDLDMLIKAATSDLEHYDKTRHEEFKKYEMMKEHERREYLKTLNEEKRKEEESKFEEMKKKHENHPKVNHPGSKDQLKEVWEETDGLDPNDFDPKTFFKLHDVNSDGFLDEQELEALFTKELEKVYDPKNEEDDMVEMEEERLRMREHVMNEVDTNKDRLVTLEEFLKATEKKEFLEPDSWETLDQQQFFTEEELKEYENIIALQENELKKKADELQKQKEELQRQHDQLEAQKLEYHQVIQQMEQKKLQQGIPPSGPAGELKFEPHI
UniProt Q6GQQ9: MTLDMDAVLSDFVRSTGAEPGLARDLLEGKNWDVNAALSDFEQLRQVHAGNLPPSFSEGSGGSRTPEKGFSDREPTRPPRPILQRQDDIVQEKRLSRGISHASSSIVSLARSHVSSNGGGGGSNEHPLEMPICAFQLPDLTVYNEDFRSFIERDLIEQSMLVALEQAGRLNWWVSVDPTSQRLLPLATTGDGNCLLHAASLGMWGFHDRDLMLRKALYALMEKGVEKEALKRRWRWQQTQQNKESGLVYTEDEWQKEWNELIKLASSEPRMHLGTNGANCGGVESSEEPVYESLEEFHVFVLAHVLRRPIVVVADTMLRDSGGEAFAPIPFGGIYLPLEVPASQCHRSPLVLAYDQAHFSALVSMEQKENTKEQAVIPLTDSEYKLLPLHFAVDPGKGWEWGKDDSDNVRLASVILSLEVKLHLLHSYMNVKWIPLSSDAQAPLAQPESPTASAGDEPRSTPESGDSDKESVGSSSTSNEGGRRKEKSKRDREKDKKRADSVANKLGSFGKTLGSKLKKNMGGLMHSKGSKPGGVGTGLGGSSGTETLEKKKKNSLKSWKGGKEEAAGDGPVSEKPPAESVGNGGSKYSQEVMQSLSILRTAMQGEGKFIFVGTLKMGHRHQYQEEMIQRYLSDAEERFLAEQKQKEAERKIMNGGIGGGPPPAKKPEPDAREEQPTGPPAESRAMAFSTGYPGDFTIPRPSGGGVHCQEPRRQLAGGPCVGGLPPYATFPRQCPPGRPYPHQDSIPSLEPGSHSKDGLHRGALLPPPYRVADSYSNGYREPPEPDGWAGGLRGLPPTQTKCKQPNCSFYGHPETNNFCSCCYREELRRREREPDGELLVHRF
UniProt Q9BZF1: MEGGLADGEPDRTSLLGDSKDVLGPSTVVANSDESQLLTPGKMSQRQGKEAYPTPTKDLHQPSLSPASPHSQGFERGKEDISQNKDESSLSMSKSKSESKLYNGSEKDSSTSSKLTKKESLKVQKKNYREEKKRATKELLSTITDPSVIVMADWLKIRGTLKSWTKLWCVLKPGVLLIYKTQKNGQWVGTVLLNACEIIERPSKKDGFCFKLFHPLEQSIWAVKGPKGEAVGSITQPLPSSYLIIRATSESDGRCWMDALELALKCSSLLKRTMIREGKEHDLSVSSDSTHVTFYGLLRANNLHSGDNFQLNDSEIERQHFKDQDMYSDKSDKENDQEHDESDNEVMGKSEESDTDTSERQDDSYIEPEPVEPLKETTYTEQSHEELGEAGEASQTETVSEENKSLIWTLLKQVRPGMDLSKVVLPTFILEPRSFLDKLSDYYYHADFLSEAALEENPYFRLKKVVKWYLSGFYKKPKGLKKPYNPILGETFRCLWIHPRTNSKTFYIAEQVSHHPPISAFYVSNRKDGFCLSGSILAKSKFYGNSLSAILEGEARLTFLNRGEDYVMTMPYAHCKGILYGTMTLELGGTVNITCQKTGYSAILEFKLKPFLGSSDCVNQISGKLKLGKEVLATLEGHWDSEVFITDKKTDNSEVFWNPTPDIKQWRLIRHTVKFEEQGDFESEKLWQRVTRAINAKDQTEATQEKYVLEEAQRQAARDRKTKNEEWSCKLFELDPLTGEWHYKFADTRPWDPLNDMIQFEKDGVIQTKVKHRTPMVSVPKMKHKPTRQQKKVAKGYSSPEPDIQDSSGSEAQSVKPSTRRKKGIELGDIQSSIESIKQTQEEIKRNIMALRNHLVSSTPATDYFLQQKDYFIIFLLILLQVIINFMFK
UniProt Q96RS6: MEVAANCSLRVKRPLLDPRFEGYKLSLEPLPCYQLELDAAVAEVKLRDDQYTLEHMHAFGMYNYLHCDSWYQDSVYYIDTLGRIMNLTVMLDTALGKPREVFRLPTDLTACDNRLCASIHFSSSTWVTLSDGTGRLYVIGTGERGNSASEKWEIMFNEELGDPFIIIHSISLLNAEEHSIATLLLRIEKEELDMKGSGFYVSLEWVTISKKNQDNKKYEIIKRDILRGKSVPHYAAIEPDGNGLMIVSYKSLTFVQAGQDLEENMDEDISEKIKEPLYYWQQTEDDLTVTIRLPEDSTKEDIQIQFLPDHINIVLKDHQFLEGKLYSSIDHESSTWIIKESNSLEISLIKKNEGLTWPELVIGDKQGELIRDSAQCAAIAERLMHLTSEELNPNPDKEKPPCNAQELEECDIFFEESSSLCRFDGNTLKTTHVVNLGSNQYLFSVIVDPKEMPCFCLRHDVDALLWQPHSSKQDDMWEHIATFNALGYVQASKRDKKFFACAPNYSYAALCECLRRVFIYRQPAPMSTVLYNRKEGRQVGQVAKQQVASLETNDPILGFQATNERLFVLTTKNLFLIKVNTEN
UniProt Q9Y5A7: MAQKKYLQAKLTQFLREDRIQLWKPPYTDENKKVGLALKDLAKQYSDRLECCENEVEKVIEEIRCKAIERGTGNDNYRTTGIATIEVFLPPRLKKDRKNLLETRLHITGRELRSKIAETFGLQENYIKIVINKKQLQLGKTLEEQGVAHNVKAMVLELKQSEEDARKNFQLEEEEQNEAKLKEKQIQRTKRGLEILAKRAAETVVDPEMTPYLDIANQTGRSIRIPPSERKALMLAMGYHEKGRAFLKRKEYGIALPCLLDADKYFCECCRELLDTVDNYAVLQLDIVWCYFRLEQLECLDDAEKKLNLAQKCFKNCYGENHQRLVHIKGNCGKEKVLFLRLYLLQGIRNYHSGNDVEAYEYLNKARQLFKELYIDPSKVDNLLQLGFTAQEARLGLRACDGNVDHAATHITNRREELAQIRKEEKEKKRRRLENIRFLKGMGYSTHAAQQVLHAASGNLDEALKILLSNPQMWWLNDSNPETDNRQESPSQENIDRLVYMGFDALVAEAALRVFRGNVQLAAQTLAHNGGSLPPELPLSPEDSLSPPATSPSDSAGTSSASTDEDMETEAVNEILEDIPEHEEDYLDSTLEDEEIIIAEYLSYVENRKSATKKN
UniProt Q02218: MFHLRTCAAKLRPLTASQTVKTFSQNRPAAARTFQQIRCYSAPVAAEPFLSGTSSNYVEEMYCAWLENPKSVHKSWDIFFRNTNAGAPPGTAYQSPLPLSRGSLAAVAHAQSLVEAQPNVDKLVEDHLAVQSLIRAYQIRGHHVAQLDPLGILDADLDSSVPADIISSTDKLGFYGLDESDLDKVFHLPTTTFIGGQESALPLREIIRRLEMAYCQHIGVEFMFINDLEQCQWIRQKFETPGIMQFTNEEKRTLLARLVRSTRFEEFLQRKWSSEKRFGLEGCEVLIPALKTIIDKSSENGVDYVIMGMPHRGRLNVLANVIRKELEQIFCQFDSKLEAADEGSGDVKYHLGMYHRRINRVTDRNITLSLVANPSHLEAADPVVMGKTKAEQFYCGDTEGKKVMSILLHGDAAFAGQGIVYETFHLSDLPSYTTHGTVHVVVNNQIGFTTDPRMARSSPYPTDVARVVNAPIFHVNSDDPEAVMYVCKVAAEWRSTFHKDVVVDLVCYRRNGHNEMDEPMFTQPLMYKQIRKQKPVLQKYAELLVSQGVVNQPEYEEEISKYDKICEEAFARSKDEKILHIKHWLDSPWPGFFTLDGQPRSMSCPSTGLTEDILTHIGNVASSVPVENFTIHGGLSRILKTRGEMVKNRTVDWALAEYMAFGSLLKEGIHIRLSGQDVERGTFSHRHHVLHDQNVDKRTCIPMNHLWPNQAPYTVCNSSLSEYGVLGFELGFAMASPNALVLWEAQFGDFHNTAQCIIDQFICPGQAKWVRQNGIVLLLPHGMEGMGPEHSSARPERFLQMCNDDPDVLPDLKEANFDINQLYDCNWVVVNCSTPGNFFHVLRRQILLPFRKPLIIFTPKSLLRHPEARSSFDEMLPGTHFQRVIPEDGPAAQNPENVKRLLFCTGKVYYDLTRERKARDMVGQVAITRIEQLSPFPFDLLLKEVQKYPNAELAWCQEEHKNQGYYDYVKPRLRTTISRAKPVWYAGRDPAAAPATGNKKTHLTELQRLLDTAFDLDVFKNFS
UniProt P61970, whole entry, looked up: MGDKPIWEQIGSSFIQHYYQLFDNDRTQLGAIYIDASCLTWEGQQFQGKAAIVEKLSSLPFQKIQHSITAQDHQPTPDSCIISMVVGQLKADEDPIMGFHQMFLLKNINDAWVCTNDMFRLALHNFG

[1] = compound: C/C(=N\NC(=O)C1=CC(=CC=C1)S(=O)(=O)N2CCOCC2)/C3=C(C=CC(=C3)Cl)O
How it was run: as §1

[2] = compound: C1=CC(=C(C=C1Cl)C2=NC3=NC=CN=C3C(=N2)NC4=CC=NC=C4)F
How it was run: as §1

[3] = compound: C1=CC(=CC=C1C2=NC3=C(N2)C=C(C=C3)C(=O)N)OC4=CC=C(C=C4)Cl
How it was run: as §1

[4] = compound: C1=CC2=C(C=CC(=C2)/C=C\3/C(=O)NC(=NCC4=CC=CS4)S3)N=C1
How it was run: as §1

[5] = compound: C1=CC2=NC=CN=C2C=C1/C=C/3\C(=O)NC(=O)S3
How it was run: as §1

[6] = compound: C1=CC=C(C=C1)C2=NC(=C(N2)C3=CC=NC=C3)C4=CC(=C(C=C4)Cl)O
How it was run: as §1

[7] = compound: C1=CC=C2C(=C1)C3=NNC4=CC=CC(=C43)C2=O
How it was run: as §1

[8] = compound: C1CCN(C1)C(=O)NC2=CC=CC(=C2)NC3=NC=C(C(=N3)NCCC4=CN=CN4)Br
How it was run: as §1

[9] = compound: C1CN(CCC1(CC2=CC=C(C=C2)Cl)N)C3=NC=NC4=C3C=CN4
How it was run: as §1

Measured: log2 fold change

NUP205 (UniProt Q92621)
inactive: erlotinib 0.047 | [1] 0.131 | [2] -0.1 | [3] -0.031 | [4] 0.068 | [5] 0 | [6] 0.016 | [7] -0.146 | [8] -0.063 | [9] -0.017

OSBPL9 (UniProt Q96SU4)
inactive: erlotinib 0.039 | [1] 0.063 | [2] -0.115 | [3] -0.01 | [4] 0.168 | [5] -0.047 | [6] 0.188 | [7] 0.02 | [8] -0.056 | [9] -0.238

NUDT9 (UniProt Q9BW91)
inactive: erlotinib -0.047 | [1] 0.111 | [2] 0.027 | [3] 0.085 | [4] 0.033 | [5] 0.049 | [6] -0.029 | [7] -0.009 | [8] 0.037 | [9] -0.009

NUDT16 (UniProt Q96DE0)
inactive: erlotinib 0.081 | [1] 0 | [2] 0.111 | [3] 0.01 | [4] -0.034 | [5] -0.004 | [6] 0.014 | [7] 0.026 | [8] -0.085 | [9] 0.081

NUP37 (UniProt Q8NFH4)
inactive: erlotinib 0.004 | [1] 0.056 | [2] 0.05 | [3] -0.029 | [4] 0.014 | [5] 0.017 | [6] -0.013 | [7] -0.065 | [8] -0.043 | [9] -0.027

OXNAD1 (UniProt Q96HP4)
inactive: erlotinib -0.006 | [1] -0.001 | [2] 0.067 | [3] 0.003 | [4] 0.001 | [5] -0.029 | [6] -0.019 | [7] -0.026 | [8] -0.007 | [9] 0.028

NSUN4 (UniProt Q96CB9)
inactive: erlotinib 0.051 | [1] -0.013 | [2] -0.049 | [3] 0.151 | [4] -0.035 | [5] -0.012 | [6] -0.036 | [7] 0.045 | [8] -0.01 | [9] -0.065

Random excerpt: 2 entries already listed, in no set order.
NUP37 (UniProt Q8NFH4)
inactive: erlotinib 0.004 | [1] 0.056 | [2] 0.05 | [3] -0.029 | [4] 0.014 | [5] 0.017 | [6] -0.013 | [7] -0.065 | [8] -0.043 | [9] -0.027

NSUN4 (UniProt Q96CB9)
inactive: erlotinib 0.051 | [1] -0.013 | [2] -0.049 | [3] 0.151 | [4] -0.035 | [5] -0.012 | [6] -0.036 | [7] 0.045 | [8] -0.01 | [9] -0.065

Next records follow:

NSUN7 (UniProt Q8NE18)
inactive: erlotinib 0.066 | [1] -0.274 | [2] -0.067 | [3] -0.046 | [4] 0.187 | [5] 0.051 | [6] -0.2 | [7] -0.029 | [8] 0.063 | [9] -0.142

NUDC (UniProt Q9Y266)
inactive: erlotinib 0.014 | [1] 0.001 | [2] 0.036 | [3] 0.006 | [4] -0.015 | [5] 0.004 | [6] -0.006 | [7] 0.057 | [8] 0.017 | [9] 0.02

OCIAD1 (UniProt Q9NX40)
inactive: erlotinib -0.005 | [1] -0.013 | [2] -0.013 | [3] 0.017 | [4] -0.01 | [5] 0.027 | [6] 0.016 | [7] -0.037 | [8] -0.014 | [9] 0.043

PA2G4 (UniProt Q9UQ80)
inactive: erlotinib -0.009 | [1] 0.036 | [2] 0.094 | [3] 0.013 | [4] -0.014 | [5] 0.011 | [6] 0.021 | [7] 0.046 | [8] -0.001 | [9] -0.079

OSBP (UniProt P22059)
inactive: erlotinib -0.059 | [1] 0.111 | [2] 0.063 | [3] 0.109 | [4] -0.009 | [5] 0.019 | [6] -0.027 | [7] -0.042 | [8] -0.001 | [9] 0.013

NUCB2 (UniProt P80303)
inactive: erlotinib -0.021 | [1] -0.011 | [2] 0.026 | [3] 0.007 | [4] 0.011 | [5] 0.047 | [6] -0.051 | [7] -0.001 | [8] -0.017 | [9] 0.031

OTUD7B (UniProt Q6GQQ9)
inactive: erlotinib 0.121 | [1] 0.129 | [2] 0.09 | [3] -0.088 | [4] 0.162 | [5] -0.144 | [6] 0.079 | [7] -0.148 | [8] -0.208 | [9] 0.014

NSMCE4A (UniProt Q9NXX6)
inactive: erlotinib -0.044 | [1] 0.028 | [2] -0.002 | [3] 0.072 | [4] 0.182 | [5] -0.138 | [6] -0.031 | [7] -0.192 | [8] 0.056 | [9] 0.117

NUP43 (UniProt Q8NFH3)
inactive: erlotinib -0.004 | [1] -0.017 | [2] 0.017 | [3] 0.038 | [4] 0.04 | [5] 0.016 | [6] 0.054 | [7] -0.061 | [8] -0.062 | [9] 0.019

OSBPL8 (UniProt Q9BZF1)
inactive: erlotinib 0.243 | [1] 0.156 | [2] -0.212 | [3] 0.021 | [4] 0.005 | [5] -0.028 | [6] 0.077 | [7] -0.005 | [8] -0.048 | [9] -0.085

NUDCD1 (UniProt Q96RS6)
inactive: erlotinib 0.024 | [1] 0.066 | [2] 0.067 | [3] -0.005 | [4] 0.02 | [5] 0.026 | [6] -0.013 | [7] -0.01 | [8] -0.016 | [9] 0.016

NUDT12 (UniProt Q9BQG2)
inactive: erlotinib 0.018 | [1] 0.025 | [2] 0.059 | [3] -0.076 | [4] 0.015 | [5] 0.027 | [6] 0.013 | [7] 0.104 | [8] -0.039 | [9] -0.034

NUP35 (UniProt Q8NFH5)
inactive: erlotinib 0.064 | [1] -0.011 | [2] 0.045 | [3] -0.012 | [4] 0.036 | [5] 0.039 | [6] -0.024 | [7] -0.127 | [8] -0.073 | [9] -0.061

NSRP1 (UniProt Q9H0G5)
inactive: erlotinib -0.039 | [1] -0.02 | [2] -0.196 | [3] 0.063 | [4] -0.169 | [5] -0.024 | [6] -0.097 | [7] 0.042 | [8] 0.012 | [9] -0.076

NUBPL (UniProt Q8TB37)
inactive: erlotinib -0.036 | [1] 0.048 | [2] -0.029 | [3] 0.027 | [4] -0.012 | [5] 0.036 | [6] -0.031 | [7] -0.001 | [8] -0.077 | [9] 0.037

NUP188 (UniProt Q5SRE5)
inactive: erlotinib 0.009 | [1] 0.119 | [2] -0.023 | [3] -0.015 | [4] 0.08 | [5] 0.028 | [6] 0.026 | [7] -0.03 | [8] -0.086 | [9] -0.055

NUB1 (UniProt Q9Y5A7)
inactive: erlotinib 0.071 | [1] 0.118 | [2] 0.039 | [3] -0.011 | [4] -0.066 | [5] -0.007 | [6] -0.091 | [7] 0.069 | [8] 0.04 | [9] -0.163

OPA1 isoform 2 (UniProt O60313)
inactive: erlotinib 0.041 | [1] 0.081 | [2] 0.031 | [3] -0.021 | [4] 0.07 | [5] 0.01 | [6] 0.126 | [7] 0.027 | [8] -0.006 | [9] 0.078

OGDH (UniProt Q02218)
inactive: erlotinib -0.134 | [1] 0.005 | [2] -0.033 | [3] 0.108 | [4] -0.024 | [5] 0.065 | [6] 0.046 | [7] 0.138 | [8] -0.051 | [9] -0.026

NUP98 (UniProt P52948)
inactive: erlotinib 0.063 | [1] 0.01 | [2] -0.085 | [3] -0.013 | [4] -0.011 | [5] 0.035 | [6] -0.015 | [7] -0.217 | [8] -0.06 | [9] -0.012

NUDT19 (UniProt A8MXV4)
inactive: erlotinib -0.031 | [1] 0.024 | [2] -0.009 | [3] -0.012 | [4] 0.035 | [5] 0.015 | [6] -0.002 | [7] -0.023 | [8] -0.038 | [9] 0.032

NUP153 (UniProt P49790)
inactive: erlotinib 0.012 | [1] -0.01 | [2] -0.06 | [3] 0.012 | [4] -0.029 | [5] 0.054 | [6] -0.046 | [7] -0.141 | [8] -0.059 | [9] -0.003

NUTF2 (UniProt P61970)
inactive: erlotinib -0.064 | [1] 0.1 | [2] 0.012 | [3] 0.028 | [4] 0.079 | [5] 0.032 | [6] 0.105 | [7] -0.001 | [8] -0.077 | [9] -0.064

— the supplement of paper PMC10849652
